Patent EP4636087A1, “ANTI-GPA33 ANTIBODY AND UTILIZATION THEREOF” (Kagoshima University, priority 2022, dated 2024)
These are yes or no findings as the source states them, for the method shown. Some binding calls cover weakened binding; strength is not graded here.

Protein sequences, listed by entry. Tags and fused reporters are not part of them. Residues count along the entry.
UniProt Q99795, residues 22-235: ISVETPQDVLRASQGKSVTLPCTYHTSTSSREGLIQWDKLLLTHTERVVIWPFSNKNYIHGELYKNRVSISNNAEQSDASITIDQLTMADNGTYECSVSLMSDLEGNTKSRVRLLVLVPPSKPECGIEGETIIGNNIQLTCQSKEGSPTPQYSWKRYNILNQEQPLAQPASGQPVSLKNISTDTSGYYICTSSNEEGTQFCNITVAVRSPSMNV
UniProt Q9JKA5, residues 22-235: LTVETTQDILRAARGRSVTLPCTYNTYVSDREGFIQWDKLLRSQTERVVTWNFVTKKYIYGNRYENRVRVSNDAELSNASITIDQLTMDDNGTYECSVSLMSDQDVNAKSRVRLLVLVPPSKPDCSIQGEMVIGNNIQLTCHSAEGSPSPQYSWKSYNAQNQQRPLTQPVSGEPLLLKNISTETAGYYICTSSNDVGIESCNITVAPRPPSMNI

What was measured:
[1] = target: human GPA33 recombinant protein (C-terminal His tag fusion protein, abcam) (human) (UniProt Q99795); assay: phage ELISA (legend of Fig. 4)
[2] = target: mouse GPA33 recombinant protein (C-terminal His tag fusion protein, abcam) (mouse) (UniProt Q9JKA5); assay: phage ELISA (legend of Fig. 4)
[3] = target: human GPA33 recombinant protein (C-terminal His tag fusion protein, abcam) (human) (UniProt Q99795); assay: phage ELISA on recombinant GPA33-His
[4] = target: mouse GPA33 recombinant protein (C-terminal His tag fusion protein, abcam) (mouse) (UniProt Q9JKA5); assay: phage ELISA on recombinant GPA33-His

Measured: binding

B1: GPA33-2RC17 cloned scFv phage (scFv)
scFv: QMQLVQSGGGLVKPGGSLRLSCAASGFTFSSYNMNWVRQAPGKGLEWVSSISSSGDFMYYADSVKGRFTISRDNAKNSLYLQMSSLRAEDTAVYYCAREGPGTPFDYWGQGTLVTVSSGGGGSGGGGSGSTGSAIQLTQSPSSLSASVGDRVTITCRASQSISSFLNWYQHKPGKAPKLLIYVASSLQSGVPSRFSGSGSGTDFTLTISSLQPEDFATYYCQQSHNTPYTFGQGTKLEIK
notes: also called G17
binds: [1] | [2] | [3] | [4]

B2: GPA33-2RC28 cloned scFv phage (scFv)
scFv: EVQLVESGGGLVKPGGSLRLSCAASGFTFSSYSMNWVRQAPGKGLEWVSSISRDSTYIYYADSVKGRFTISRDNAKNSLYLQMNSLRAEDTAVYYCAREGVAGAFDIWGQGTMVTVSSGGGGSGGGGSGSTGSAIQLTQSPSSLSASVGDRVTITCRASQSISSYLNWYQQKPGKAPKLLIYIASSLQSGVPSRFSGSGSGTDFTLTISSLQPEDFATYYCQQSYNTWTFGQGTKVEIK
binds: [1] | [2] | [3] | [4]
